Assay results as given in patent US20180215802A1 (MUSC FOUNDATION FOR RESEARCH DEVELOPMENT, published 2018).
Results are given in words; binding and its absence hold for the method and conditions named. Binding seen in cells or lysates may run through a third protein. Some entries that bind do so weakly or less than the wild type.

Amino acid sequences for entries named in this document (tags omitted). Residues count along the entry.
UniProt Q15796, residues 2-467: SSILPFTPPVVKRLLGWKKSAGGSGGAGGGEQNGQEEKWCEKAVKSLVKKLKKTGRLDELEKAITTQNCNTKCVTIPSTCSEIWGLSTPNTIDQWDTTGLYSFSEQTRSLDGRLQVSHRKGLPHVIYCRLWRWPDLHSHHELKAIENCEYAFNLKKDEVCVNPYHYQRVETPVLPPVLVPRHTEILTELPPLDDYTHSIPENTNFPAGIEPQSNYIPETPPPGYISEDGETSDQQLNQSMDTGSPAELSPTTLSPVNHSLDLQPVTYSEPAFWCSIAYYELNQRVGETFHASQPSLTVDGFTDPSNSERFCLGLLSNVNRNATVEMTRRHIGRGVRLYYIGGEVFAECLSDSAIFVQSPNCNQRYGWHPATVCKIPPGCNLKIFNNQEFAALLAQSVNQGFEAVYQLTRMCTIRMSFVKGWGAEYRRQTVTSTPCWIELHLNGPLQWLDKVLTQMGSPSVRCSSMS

Columns and labels:
[1] = target: endogenous Smad2 in scleroderma lung and skin primary fibroblasts (human) (UniProt Q15796); assay: co-immunoprecipitation (FIG. 12C)
[2] = target: endogenous Smad2 in scleroderma lung and skin primary fibroblasts (human) (UniProt Q15796); assay: co-immunoprecipitation
[3] = target: endogenous Smad2 in scleroderma lung and skin primary fibroblasts (human) (UniProt Q15796); assay: co-immunoprecipitation from scleroderma lung and skin fibroblasts with C12 antibody, anti-Smad2 immunoblot

Measured: binding

B1: M10 peptide (TRPASFWETS), synthetic (peptide)
peptide: TRPASFWETS
notes: Synthetic peptide from GenScript; A 5,6-TAMRA conjugate (at the N-terminus) was used only for localisation; also called 2 kD C-terminal fragment (M10) of the MET receptor; last 10 amino acids of MET
binds: [1] | [2] | [3]
